These are yes or no findings as the source states them, for the method shown. For some of these results: In cells and extracts the contact can be indirect. Some results given as binding are weak or reduced against the parent protein; the word gives no strength. For some of these results: Where a sequence is shown, tags or fusion partners need not be part of it.

Amino acid sequences for entries named in this document (tags omitted). A change or cut given only in a name is not applied to a line headed by its entry.
UniProt P04386: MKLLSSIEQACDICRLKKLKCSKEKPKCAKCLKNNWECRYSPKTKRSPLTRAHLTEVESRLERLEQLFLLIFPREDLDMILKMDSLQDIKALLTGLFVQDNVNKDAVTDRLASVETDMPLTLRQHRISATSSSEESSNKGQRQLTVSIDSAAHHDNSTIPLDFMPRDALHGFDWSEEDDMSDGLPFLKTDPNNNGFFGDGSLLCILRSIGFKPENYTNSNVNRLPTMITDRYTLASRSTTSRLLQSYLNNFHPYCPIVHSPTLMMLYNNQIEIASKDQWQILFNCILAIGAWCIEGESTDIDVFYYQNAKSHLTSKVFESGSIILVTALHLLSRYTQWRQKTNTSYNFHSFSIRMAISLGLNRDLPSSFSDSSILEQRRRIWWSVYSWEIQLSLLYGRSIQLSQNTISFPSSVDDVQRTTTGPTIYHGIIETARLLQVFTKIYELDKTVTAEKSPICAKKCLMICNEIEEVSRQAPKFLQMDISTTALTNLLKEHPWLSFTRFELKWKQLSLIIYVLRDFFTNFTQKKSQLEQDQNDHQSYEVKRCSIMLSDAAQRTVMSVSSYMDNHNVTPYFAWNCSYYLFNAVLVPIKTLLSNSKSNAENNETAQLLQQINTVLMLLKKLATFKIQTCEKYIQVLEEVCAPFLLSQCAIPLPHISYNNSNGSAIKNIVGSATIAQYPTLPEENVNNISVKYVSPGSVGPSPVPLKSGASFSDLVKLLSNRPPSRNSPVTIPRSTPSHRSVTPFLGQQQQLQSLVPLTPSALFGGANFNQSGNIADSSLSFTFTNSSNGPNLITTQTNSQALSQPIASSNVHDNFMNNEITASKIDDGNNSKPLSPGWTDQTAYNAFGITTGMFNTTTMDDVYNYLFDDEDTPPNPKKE

This passage reports binding results from patent US20070014790A1.

Assay [1] deals with T1, entire coding region of human ZHX3 protein fused to GST, GST-ZHX3 (1-956) (human) (UniProt Q9H4I2).
T1 sequence: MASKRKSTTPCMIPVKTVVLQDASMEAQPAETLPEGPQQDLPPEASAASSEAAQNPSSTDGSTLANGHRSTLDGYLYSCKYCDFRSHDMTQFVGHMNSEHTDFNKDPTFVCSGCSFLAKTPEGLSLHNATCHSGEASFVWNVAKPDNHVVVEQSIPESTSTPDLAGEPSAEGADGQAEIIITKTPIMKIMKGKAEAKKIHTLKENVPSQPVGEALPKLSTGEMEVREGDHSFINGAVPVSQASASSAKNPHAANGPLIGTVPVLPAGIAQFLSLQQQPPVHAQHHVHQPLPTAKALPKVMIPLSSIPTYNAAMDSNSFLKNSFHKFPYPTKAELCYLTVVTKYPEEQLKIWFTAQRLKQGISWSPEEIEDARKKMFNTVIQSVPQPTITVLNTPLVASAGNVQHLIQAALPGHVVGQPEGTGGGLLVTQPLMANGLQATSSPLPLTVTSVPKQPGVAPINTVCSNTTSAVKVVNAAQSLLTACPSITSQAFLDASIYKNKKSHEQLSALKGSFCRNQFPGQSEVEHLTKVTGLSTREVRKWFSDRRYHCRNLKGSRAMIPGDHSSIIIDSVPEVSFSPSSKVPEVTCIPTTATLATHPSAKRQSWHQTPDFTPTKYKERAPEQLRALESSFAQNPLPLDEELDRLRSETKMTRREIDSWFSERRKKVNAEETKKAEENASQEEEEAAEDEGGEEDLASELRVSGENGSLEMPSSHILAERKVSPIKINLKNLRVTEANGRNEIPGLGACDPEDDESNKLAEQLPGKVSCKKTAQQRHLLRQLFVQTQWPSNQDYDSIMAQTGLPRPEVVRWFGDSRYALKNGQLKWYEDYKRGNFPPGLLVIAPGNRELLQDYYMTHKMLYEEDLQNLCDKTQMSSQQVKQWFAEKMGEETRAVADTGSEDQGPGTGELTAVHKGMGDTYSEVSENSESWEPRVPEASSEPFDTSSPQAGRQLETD
As to the kind of experiment: GST pull-down on glutathione-Sepharose beads, SDS/PAGE and autoradiography.

Assay [2] concerns the target entire coding sequence of human ZHX1 fused to the GAL4 DBD, pDBD-ZHX1 (1-873) (yeast; human) (UniProt P04386+Q9UKY1). Put plainly: yeast two-hybrid library screen, bait GAL4 DBD-human ZHX1 (1-873).
The target of assay [3] is T2, entire coding region of human ZHX1 protein fused to GST, GST-ZHX1 (1-873) (human) (UniProt Q9UKY1).
T2 sequence (looked up): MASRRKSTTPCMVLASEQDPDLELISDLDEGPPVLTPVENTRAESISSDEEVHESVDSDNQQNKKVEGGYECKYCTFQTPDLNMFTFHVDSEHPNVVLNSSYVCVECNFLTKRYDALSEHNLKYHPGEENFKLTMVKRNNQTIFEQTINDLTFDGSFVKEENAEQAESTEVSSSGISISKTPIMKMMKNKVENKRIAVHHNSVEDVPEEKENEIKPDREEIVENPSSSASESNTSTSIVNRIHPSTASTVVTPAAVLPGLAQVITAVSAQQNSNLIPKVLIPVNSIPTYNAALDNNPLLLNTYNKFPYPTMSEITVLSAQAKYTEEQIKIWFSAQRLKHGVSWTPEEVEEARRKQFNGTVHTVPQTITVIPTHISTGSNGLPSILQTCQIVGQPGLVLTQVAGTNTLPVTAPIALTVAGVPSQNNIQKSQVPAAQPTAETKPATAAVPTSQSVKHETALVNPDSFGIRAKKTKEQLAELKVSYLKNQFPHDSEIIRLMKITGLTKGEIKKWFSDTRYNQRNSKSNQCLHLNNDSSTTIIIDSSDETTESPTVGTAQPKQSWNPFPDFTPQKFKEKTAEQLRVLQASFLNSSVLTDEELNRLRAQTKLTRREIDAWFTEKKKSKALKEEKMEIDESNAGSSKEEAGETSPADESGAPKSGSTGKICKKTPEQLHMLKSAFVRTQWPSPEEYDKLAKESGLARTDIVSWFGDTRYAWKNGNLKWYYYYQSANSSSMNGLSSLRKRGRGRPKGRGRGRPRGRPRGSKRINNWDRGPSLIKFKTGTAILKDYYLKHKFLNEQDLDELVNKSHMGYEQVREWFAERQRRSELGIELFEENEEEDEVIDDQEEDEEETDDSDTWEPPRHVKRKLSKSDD
As to the kind of experiment: GST pull-down on glutathione-Sepharose beads, SDS/PAGE and autoradiography.

B1: in vitro-translated, 35S-labelled full-length human ZHX1 (protein, UniProt Q9UKY1 1-873, looked up)
chain: MASRRKSTTPCMVLASEQDPDLELISDLDEGPPVLTPVENTRAESISSDEEVHESVDSDNQQNKKVEGGYECKYCTFQTPDLNMFTFHVDSEHPNVVLNSSYVCVECNFLTKRYDALSEHNLKYHPGEENFKLTMVKRNNQTIFEQTINDLTFDGSFVKEENAEQAESTEVSSSGISISKTPIMKMMKNKVENKRIAVHHNSVEDVPEEKENEIKPDREEIVENPSSSASESNTSTSIVNRIHPSTASTVVTPAAVLPGLAQVITAVSAQQNSNLIPKVLIPVNSIPTYNAALDNNPLLLNTYNKFPYPTMSEITVLSAQAKYTEEQIKIWFSAQRLKHGVSWTPEEVEEARRKQFNGTVHTVPQTITVIPTHISTGSNGLPSILQTCQIVGQPGLVLTQVAGTNTLPVTAPIALTVAGVPSQNNIQKSQVPAAQPTAETKPATAAVPTSQSVKHETALVNPDSFGIRAKKTKEQLAELKVSYLKNQFPHDSEIIRLMKITGLTKGEIKKWFSDTRYNQRNSKSNQCLHLNNDSSTTIIIDSSDETTESPTVGTAQPKQSWNPFPDFTPQKFKEKTAEQLRVLQASFLNSSVLTDEELNRLRAQTKLTRREIDAWFTEKKKSKALKEEKMEIDESNAGSSKEEAGETSPADESGAPKSGSTGKICKKTPEQLHMLKSAFVRTQWPSPEEYDKLAKESGLARTDIVSWFGDTRYAWKNGNLKWYYYYQSANSSSMNGLSSLRKRGRGRPKGRGRGRPRGRPRGSKRINNWDRGPSLIKFKTGTAILKDYYLKHKFLNEQDLDELVNKSHMGYEQVREWFAERQRRSELGIELFEENEEEDEVIDDQEEDEEETDDSDTWEPPRHVKRKLSKSDD
modifications: 35S-labelled
Regarding B1, the binding result in assay [1] is reported as “binds”.

B2: ZHX1 (clones from the rat cDNA libraries) (protein, UniProt Q8R515 1-873, looked up, not shown: large carriers)
chain: MASRRKSTTPCMVLASEQDPDLELISDLEEGPPVLTPVENARAESVSSDEEVHESVDSDNQQNKKVEGGYECKYCTFQTPDLNMFTFHVDSEHPNVVLNSSYVCVECNFLTKRYDALSEHNLKYHPGEENFKLTMVKRNNQTIFEQTINDLTFDGSFVKEENTEQGESIDVSSSGISISKTPIMKMMKNKVENKRITVHHNSAEGTSEEKENGVKASREENAENTSSSASESNTSTSTVNQVHPSPAGTVVTPTAVLPGLAQVITAVSAQQNSNLVPKVLIPVNSIPTYNAALDNNPLLLNTYNKFPYPTMSEITVLSAQAKYTEEQIKIWFSAQRLKHGVSWTPEEVEEARRKQFNGTVHTVPQTITVIPTHISTGSNGLPSILQTCQIVGQPGLVLTQVAGANTLPVTAPIALTVAGVPNQTNVQKSQVPAAQPAAETKPATAAVPSSPSVRPEAALVNPDSFGIRAKKTKEQLAELKVSYLKNQFPHDSEIIRLMKITGLTKGEIKKWFSDTRYNQRNSKSNQCLHLNNDSSATIIIDSSDETPEPPAAAASQPKQSWNPFPDFAPQKFKEKTAEQLRVLQASFLNSSVLTDEELNRLRAQTKLTRREIDAWFTEKNKTKALKDEKVEVDESNVGSSKEEPGENSPGDEAVAPKSAGTGKICKKTPEQLHMLKSAFVRTQWPSPEEYDKLAEESGLARTDIVSWFGDTRYAWKNGNLKWYYYYQSSNSSSLNGLSSLRKRGRGRPKGRGRGRPRGRPRGGKRMNTWDRVPSLIKFKTGTAILKDYYLKHKFLNEQDLDELVNRSHMGYEQVREWFAERQRRSELGIELFEENEEEDEVIDDQEEDEEETDDSDTWEPPRHVKRKLSKSDD
On to B2, for which the binding result in assay [2] is recorded as “binds”.

B3: in vitro-translated, 35S-labelled full-length human ZHX3 (protein)
chain: MASKRKSTTPCMIPVKTVVLQDASMEAQPAETLPEGPQQDLPPEASAASSEAAQNPSSTDGSTLANGHRSTLDGYLYSCKYCDFRSHDMTQFVGHMNSEHTDFNKDPTFVCSGCSFLAKTPEGLSLHNATCHSGEASFVWNVAKPDNHVVVEQSIPESTSTPDLAGEPSAEGADGQAEIIITKTPIMKIMKGKAEAKKIHTLKENVPSQPVGEALPKLSTGEMEVREGDHSFINGAVPVSQASASSAKNPHAANGPLIGTVPVLPAGIAQFLSLQQQPPVHAQHHVHQPLPTAKALPKVMIPLSSIPTYNAAMDSNSFLKNSFHKFPYPTKAELCYLTVVTKYPEEQLKIWFTAQRLKQGISWSPEEIEDARKKMFNTVIQSVPQPTITVLNTPLVASAGNVQHLIQAALPGHVVGQPEGTGGGLLVTQPLMANGLQATSSPLPLTVTSVPKQPGVAPINTVCSNTTSAVKVVNAAQSLLTACPSITSQAFLDASIYKNKKSHEQLSALKGSFCRNQFPGQSEVEHLTKVTGLSTREVRKWFSDRRYHCRNLKGSRAMIPGDHSSIIIDSVPEVSFSPSSKVPEVTCIPTTATLATHPSAKRQSWHQTPDFTPTKYKERAPEQLRALESSFAQNPLPLDEELDRLRSETKMTRREIDSWFSERRKKVNAEETKKAEENASQEEEEAAEDEGGEEDLASELRVSGENGSLEMPSSHILAERKVSPIKINLKNLRVTEANGRNEIPGLGACDPEDDESNKLAEQLPGKVSCKKTAQQRHLLRQLFVQTQWPSNQDYDSIMAQTGLPRPEVVRWFGDSRYALKNGQLKWYEDYKRGNFPPGLLVIAPGNRELLQDYYMTHKMLYEEDLQNLCDKTQMSSQQVKQWFAEKMGEETRAVADTGSEDQGPGTGELTAVHKGMGDTYSEVSENSESWEPRVPEASSEPFDTSSPQAGRQLETD
modifications: 35S-labelled
As for B3, the binding result in assay [1] and in assay [3] was “binds” each time.
